Data from the supplement of paper PMC10849652.
This is one part of the list.

Amino acid sequences for entries named in this document (tags omitted). A change or cut given only in a name is not applied to a line headed by its entry.
UniProt Q5JTD0: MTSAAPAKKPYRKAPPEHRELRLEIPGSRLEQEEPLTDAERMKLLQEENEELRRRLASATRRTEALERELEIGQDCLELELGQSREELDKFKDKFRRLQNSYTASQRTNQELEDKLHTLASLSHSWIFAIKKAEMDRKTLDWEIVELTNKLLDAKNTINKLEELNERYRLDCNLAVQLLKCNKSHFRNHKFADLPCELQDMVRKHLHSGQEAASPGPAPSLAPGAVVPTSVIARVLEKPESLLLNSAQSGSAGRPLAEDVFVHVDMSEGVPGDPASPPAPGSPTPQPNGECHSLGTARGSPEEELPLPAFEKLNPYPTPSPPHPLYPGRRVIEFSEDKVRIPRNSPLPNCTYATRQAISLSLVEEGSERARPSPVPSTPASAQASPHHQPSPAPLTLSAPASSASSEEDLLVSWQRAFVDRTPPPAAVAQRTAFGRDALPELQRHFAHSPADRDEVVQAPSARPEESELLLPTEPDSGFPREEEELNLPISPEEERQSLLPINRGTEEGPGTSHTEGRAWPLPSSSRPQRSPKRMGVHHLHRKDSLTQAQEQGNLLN
UniProt Q8NFU7: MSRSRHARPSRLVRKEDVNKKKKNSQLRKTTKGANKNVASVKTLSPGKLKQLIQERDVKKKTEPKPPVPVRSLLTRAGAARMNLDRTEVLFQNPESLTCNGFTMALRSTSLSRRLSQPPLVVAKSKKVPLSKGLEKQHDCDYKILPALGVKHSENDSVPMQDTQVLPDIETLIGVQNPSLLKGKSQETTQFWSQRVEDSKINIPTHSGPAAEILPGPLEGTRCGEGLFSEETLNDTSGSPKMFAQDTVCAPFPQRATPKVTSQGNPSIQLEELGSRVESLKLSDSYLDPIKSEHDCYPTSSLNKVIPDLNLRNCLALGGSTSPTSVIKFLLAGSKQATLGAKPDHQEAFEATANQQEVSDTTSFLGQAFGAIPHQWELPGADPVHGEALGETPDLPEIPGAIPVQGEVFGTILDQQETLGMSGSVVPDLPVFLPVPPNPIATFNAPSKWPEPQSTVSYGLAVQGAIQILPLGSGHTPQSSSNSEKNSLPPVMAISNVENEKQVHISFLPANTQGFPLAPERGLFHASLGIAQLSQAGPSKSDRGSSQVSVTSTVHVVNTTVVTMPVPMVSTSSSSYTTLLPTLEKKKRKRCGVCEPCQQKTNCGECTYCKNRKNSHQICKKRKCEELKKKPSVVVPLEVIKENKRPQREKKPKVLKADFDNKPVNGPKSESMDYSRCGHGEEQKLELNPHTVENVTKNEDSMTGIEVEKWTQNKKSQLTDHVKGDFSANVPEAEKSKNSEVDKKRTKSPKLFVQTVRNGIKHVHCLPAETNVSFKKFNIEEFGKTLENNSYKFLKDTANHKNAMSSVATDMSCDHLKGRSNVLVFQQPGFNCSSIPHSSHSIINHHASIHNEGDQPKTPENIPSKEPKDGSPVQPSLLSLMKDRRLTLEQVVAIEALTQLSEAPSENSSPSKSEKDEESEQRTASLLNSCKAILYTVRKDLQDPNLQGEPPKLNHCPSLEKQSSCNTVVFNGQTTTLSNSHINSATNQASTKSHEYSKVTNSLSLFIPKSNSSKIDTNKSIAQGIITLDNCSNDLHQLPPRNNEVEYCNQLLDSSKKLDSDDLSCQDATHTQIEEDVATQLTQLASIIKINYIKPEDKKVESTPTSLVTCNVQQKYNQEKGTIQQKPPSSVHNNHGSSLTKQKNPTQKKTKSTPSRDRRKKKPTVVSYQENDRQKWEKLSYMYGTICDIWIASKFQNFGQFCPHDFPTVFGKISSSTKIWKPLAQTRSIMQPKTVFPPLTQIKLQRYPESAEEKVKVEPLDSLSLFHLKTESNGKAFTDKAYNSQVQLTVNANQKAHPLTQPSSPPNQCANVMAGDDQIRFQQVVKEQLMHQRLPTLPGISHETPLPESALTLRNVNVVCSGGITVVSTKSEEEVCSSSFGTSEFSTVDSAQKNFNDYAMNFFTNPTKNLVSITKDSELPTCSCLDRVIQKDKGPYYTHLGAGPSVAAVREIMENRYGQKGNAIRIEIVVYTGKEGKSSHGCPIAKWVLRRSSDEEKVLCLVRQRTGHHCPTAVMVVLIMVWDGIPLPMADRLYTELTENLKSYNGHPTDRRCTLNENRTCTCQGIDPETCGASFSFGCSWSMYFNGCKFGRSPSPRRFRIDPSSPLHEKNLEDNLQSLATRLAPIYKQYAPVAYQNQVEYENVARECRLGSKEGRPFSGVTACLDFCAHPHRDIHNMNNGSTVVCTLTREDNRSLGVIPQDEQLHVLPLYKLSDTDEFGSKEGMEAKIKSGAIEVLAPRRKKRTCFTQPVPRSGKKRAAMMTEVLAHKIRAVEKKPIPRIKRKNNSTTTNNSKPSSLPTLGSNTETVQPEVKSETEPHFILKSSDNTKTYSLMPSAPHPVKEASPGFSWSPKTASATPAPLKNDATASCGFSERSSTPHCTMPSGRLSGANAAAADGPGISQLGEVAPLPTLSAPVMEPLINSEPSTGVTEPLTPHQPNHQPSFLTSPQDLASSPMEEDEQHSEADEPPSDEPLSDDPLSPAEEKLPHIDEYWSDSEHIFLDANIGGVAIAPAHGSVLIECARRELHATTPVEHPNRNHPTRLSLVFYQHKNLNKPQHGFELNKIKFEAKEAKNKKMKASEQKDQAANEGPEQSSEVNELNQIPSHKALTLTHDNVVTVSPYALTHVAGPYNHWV
UniProt Q9BVW5: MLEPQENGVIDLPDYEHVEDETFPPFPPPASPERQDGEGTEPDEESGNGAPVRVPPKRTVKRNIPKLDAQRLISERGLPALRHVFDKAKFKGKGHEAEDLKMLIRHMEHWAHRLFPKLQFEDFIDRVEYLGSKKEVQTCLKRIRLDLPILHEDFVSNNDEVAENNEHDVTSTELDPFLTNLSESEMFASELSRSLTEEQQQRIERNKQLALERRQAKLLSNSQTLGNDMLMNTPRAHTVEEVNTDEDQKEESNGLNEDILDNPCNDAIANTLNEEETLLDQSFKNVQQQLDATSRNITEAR
UniProt P07996: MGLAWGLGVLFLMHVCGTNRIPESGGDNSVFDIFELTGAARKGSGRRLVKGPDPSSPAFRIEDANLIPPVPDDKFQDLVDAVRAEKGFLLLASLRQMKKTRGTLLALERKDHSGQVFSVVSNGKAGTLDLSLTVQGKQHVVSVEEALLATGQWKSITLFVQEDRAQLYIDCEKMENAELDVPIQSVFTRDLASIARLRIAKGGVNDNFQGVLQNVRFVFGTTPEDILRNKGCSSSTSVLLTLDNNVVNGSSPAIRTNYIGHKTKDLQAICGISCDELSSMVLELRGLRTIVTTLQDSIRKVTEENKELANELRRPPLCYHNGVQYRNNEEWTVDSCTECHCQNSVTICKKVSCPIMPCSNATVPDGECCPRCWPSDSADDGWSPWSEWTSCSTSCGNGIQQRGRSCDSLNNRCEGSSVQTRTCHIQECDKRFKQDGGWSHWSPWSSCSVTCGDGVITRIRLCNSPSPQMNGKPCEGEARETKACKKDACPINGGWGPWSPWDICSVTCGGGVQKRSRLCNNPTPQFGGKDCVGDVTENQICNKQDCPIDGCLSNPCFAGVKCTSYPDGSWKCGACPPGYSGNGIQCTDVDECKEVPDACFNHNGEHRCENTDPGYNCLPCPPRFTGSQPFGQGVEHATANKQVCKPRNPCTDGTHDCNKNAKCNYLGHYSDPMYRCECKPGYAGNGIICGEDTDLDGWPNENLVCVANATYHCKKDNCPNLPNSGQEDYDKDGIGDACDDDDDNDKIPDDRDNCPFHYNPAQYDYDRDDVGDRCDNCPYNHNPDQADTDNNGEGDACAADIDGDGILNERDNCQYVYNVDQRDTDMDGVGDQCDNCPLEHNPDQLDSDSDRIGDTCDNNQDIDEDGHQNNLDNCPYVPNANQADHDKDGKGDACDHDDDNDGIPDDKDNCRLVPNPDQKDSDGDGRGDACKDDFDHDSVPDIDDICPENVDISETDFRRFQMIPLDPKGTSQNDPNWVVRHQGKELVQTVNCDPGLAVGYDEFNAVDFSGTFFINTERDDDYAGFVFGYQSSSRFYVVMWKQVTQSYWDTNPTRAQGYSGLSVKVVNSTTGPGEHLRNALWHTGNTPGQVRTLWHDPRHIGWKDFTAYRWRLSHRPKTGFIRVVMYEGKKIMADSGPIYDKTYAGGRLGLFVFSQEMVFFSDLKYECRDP
UniProt Q9NXG2: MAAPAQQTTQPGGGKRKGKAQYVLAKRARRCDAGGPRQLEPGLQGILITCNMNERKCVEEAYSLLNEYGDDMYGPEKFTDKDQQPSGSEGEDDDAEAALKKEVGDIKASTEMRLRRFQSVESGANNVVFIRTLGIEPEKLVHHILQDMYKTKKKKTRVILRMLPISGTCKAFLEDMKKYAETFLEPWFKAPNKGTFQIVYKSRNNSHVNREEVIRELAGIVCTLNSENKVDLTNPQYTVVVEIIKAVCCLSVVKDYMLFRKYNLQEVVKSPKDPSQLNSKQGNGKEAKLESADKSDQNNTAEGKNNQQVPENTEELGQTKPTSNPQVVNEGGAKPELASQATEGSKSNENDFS
UniProt Q96J01: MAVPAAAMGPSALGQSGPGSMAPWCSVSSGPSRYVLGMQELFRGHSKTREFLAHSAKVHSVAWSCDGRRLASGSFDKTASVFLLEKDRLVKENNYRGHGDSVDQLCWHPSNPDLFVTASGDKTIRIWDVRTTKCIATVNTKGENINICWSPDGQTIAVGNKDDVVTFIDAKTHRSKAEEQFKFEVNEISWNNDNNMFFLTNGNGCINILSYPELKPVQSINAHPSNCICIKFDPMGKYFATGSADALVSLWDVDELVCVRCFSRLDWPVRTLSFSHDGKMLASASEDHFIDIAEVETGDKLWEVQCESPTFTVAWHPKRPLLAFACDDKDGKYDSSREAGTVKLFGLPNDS
UniProt P31483: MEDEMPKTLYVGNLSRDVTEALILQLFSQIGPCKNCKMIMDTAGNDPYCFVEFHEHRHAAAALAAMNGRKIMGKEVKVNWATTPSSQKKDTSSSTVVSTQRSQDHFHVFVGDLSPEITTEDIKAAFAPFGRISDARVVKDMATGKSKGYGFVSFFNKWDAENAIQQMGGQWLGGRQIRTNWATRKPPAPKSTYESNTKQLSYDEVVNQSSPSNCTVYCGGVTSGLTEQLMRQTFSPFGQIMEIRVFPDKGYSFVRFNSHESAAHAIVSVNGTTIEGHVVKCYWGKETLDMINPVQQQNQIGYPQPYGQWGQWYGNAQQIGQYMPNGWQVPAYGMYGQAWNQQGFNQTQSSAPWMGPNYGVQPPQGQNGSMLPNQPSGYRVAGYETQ
UniProt O60830: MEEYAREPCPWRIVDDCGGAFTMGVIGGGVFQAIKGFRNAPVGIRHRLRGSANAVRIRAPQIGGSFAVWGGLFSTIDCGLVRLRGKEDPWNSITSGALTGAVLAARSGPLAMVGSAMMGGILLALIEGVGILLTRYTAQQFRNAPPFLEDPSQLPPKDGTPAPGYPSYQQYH
UniProt Q9Y2W6: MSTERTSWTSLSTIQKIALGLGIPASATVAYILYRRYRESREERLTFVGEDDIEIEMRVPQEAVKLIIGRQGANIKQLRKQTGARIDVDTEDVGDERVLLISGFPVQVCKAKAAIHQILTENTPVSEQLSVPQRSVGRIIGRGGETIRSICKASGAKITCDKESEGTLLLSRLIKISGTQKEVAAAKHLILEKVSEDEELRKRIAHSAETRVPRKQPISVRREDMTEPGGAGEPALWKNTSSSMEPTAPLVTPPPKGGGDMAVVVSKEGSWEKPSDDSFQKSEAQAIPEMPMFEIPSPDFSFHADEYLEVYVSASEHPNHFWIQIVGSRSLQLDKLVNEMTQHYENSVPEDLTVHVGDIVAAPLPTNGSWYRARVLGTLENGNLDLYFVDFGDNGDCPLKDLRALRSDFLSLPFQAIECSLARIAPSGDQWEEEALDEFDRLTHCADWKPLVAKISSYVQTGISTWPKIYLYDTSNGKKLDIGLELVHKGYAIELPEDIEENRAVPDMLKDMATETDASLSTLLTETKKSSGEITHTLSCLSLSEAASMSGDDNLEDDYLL
UniProt Q9NU19: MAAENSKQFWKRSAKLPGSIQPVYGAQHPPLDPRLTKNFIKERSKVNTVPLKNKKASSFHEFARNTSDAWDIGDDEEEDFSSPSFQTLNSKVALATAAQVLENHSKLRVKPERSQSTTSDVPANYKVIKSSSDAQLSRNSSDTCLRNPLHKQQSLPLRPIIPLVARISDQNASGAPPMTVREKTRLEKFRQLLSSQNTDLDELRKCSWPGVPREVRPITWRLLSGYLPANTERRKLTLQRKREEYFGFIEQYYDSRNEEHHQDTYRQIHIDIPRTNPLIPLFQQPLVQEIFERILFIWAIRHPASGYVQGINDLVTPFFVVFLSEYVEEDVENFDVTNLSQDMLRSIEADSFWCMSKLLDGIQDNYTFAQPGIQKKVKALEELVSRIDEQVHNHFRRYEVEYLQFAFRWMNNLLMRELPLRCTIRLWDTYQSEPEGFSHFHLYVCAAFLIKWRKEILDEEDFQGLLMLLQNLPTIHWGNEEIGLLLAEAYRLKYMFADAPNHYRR

Legend:
Assay in all cases: log2 fold change, soluble protein after heating vs DMSO (PISA); higher = thermal stabilisation; K562 cells, 10 uM, 30 min; active = over 0.2 and 3.5 SD of the protein, either way, in both replicates (recomputed)
[1] = compound: COC1=CC=C(C=C1)CN2C=CC3=C2C=C(C=C3)C(=O)NO
Method in brief: (§1)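 K562 cells (2×10^6 cells/mL) were treated with 10 μM compound for 30 min, and aliquots were heated for 3 min over 48°C-58°C. Pooled aliquots were extracted in PBS with 0.5% NP-40 at 4°C, and the supernatant after 21,000xg for 90 min was measured by TMTpro 16plex LC-MS/MS with channel sums equalised. Reported thermal stability, relative to control samples and from duplicates, is a log2 fold change.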

filanesib = compound: CON(C)C(=O)N1N=C(c2cc(F)ccc2F)S[C@@]1(CCCN)c1ccccc1 [filanesib]
Method in brief: as §1

zotarolimus = compound: CO[C@H]1C[C@@H]2CC[C@@H](C)[C@@](O)(O2)C(=O)C(=O)N2CCCC[C@H]2C(=O)O[C@H]([C@H](C)C[C@@H]2CC[C@H](n3cnnn3)[C@H](OC)C2)CC(=O)[C@H](C)/C=C(\C)[C@@H](O)[C@@H](OC)C(=O)[C@H](C)C[C@H](C)/C=C/C=C/C=C/1C [zotarolimus]
Method in brief: as §1

idasanutlin = compound: COc1cc(C(=O)O)ccc1NC(=O)[C@@H]1N[C@@H](CC(C)(C)C)[C@](C#N)(c2ccc(Cl)cc2F)[C@H]1c1cccc(Cl)c1F [idasanutlin]
Method in brief: as §1

alisertib = compound: COc1cc(Nc2ncc3c(n2)-c2ccc(Cl)cc2C(c2c(F)cccc2OC)=NC3)ccc1C(=O)O [alisertib]
Method in brief: as §1

[2] = compound: COc1cc2nc(-c3cc(F)ccc3O)nc(N[C@@H]3CNC[C@H]3C(C)(C)O)c2cc1OC
Method in brief: as §1

gefitinib = compound: COc1cc2ncnc(Nc3ccc(F)c(Cl)c3)c2cc1OCCCN1CCOCC1 [gefitinib]
Method in brief: as §1

[3] = compound: COc1cccc2cc(-c3nc([C@H]4CC[C@H](C(=O)O)CC4)n4ncnc(N)c34)[nH]c12
Method in brief: as §1

lapatinib = compound: CS(=O)(=O)CCNCc1ccc(-c2ccc3ncnc(Nc4ccc(OCc5cccc(F)c5)c(Cl)c4)c3c2)o1 [lapatinib]
Method in brief: as §1

pictilisib = compound: CS(=O)(=O)N1CCN(Cc2cc3nc(-c4cccc5[nH]ncc45)nc(N4CCOCC4)c3s2)CC1 [pictilisib]
Method in brief: as §1

[4] = compound: CS(=O)(=O)c1ccc(-c2cnc(N)c(C(=O)Nc3ccccc3)n2)cc1
Method in brief: as §1

crizotinib = compound: C[C@@H](Oc1cc(-c2cnn(C3CCNCC3)c2)cnc1N)c1c(Cl)ccc(F)c1Cl [crizotinib]
Method in brief: as §1

[5] = compound: C[C@@H]1COCCN1C2=NC(=NC(=C2)C3(CC3)S(=O)(=O)C)C4=C5C=CNC5=CC=C4
Method in brief: as §1

[6] = compound: C[C@H](C1=CC=C(C=C1)C(=O)NC2=C3C=CNC3=NC=C2)N
Method in brief: as §1

duvelisib = compound: C[C@H](Nc1ncnc2nc[nH]c12)c1cc2cccc(Cl)c2c(=O)n1-c1ccccc1 [duvelisib]
Method in brief: as §1

gandotinib = compound: Cc1cc(Nc2cc(CN3CCOCC3)c3nc(C)c(Cc4ccc(Cl)cc4F)n3n2)n[nH]1 [gandotinib]
Method in brief: as §1

tozasertib = compound: Cc1cc(Nc2cc(N3CCN(C)CC3)nc(Sc3ccc(NC(=O)C4CC4)cc3)n2)n[nH]1 [tozasertib]
Method in brief: as §1

[7] = compound: Cc1cc(SCc2sc(-c3ccc(C(F)(F)F)cc3)nc2C)ccc1OCC(=O)O
Method in brief: as §1

doramapimod = compound: Cc1ccc(-n2nc(C(C)(C)C)cc2NC(=O)Nc2ccc(OCCN3CCOCC3)c3ccccc23)cc1 [doramapimod]
Method in brief: as §1

ispinesib = compound: Cc1ccc(C(=O)N(CCCN)[C@@H](c2nc3cc(Cl)ccc3c(=O)n2Cc2ccccc2)C(C)C)cc1 [ispinesib]
Method in brief: as §1

Measured: log2 fold change

TIMM50 isoform 2 (UniProt Q3ZCQ8)
inactive: [1] -0.008 | filanesib 0.023 | zotarolimus -0.014 | idasanutlin -0.029 | alisertib -0.084 | [2] 0.13 | gefitinib 0.029 | [3] 0.021 | lapatinib 0.002 | pictilisib 0.087 | [4] -0.001 | crizotinib 0.039 | [5] 0.066 | [6] -0.007 | duvelisib 0.081 | gandotinib -0.034 | tozasertib -0.005 | [7] 0.026 | doramapimod -0.025 | ispinesib 0.027

TJAP1 (UniProt Q5JTD0)
inactive: [1] -0.059 | filanesib 0.193 | zotarolimus -0.026 | idasanutlin -0.004 | alisertib -0.018 | [2] 0.126 | gefitinib 0.028 | [3] 0.036 | lapatinib 0.182 | pictilisib 0.07 | [4] -0.065 | crizotinib 0.08 | [5] 0.001 | [6] -0.176 | duvelisib 0.024 | gandotinib 0.159 | tozasertib -0.008 | [7] 0.098 | doramapimod -0.011 | ispinesib -0.13

TET1 (UniProt Q8NFU7)
inactive: [1] 0.424 | filanesib 0.055 | zotarolimus 0.023 | idasanutlin -0.12 | alisertib -0.141 | [2] 0.321 | gefitinib 0.058 | [3] 0.153 | lapatinib -0.11 | pictilisib 0.042 | [4] 0.057 | crizotinib 0.059 | [5] 0.174 | [6] 0.011 | duvelisib 0.18 | gandotinib 0.328 | tozasertib -0.153 | [7] -0.374 | doramapimod 0.076 | ispinesib 0.048

Reprinted at random: 2 records from the list
TET1 (UniProt Q8NFU7)
inactive: [1] 0.424 | filanesib 0.055 | zotarolimus 0.023 | idasanutlin -0.12 | alisertib -0.141 | [2] 0.321 | gefitinib 0.058 | [3] 0.153 | lapatinib -0.11 | pictilisib 0.042 | [4] 0.057 | crizotinib 0.059 | [5] 0.174 | [6] 0.011 | duvelisib 0.18 | gandotinib 0.328 | tozasertib -0.153 | [7] -0.374 | doramapimod 0.076 | ispinesib 0.048

TIMM50 isoform 2 (UniProt Q3ZCQ8)
inactive: [1] -0.008 | filanesib 0.023 | zotarolimus -0.014 | idasanutlin -0.029 | alisertib -0.084 | [2] 0.13 | gefitinib 0.029 | [3] 0.021 | lapatinib 0.002 | pictilisib 0.087 | [4] -0.001 | crizotinib 0.039 | [5] 0.066 | [6] -0.007 | duvelisib 0.081 | gandotinib -0.034 | tozasertib -0.005 | [7] 0.026 | doramapimod -0.025 | ispinesib 0.027

Next results:

TCAF1 (UniProt Q9Y4C2)
inactive: [1] -0.016 | filanesib 0.024 | zotarolimus 0.099 | idasanutlin -0.036 | alisertib 0.005 | [2] 0.021 | gefitinib 0.003 | [3] -0.031 | lapatinib 0.016 | pictilisib 0.031 | [4] 0.079 | crizotinib -0.109 | [5] 0.001 | [6] 0.141 | duvelisib -0.045 | gandotinib -0.015 | tozasertib -0.036 | [7] 0.039 | doramapimod 0.055 | ispinesib -0.073

TIPIN (UniProt Q9BVW5)
inactive: [1] 0 | filanesib 0.068 | zotarolimus 0.016 | idasanutlin 0 | alisertib -0.008 | [2] 0.15 | gefitinib -0.014 | [3] 0.029 | lapatinib -0.078 | pictilisib -0.04 | [4] -0.026 | crizotinib 0.114 | [5] 0.048 | [6] 0.008 | duvelisib 0.039 | gandotinib 0.03 | tozasertib 0.038 | [7] 0.057 | doramapimod -0.028

THBS1 (UniProt P07996)
inactive: [1] 0.038 | filanesib 0.072 | zotarolimus -0.182 | idasanutlin 0.151 | alisertib -0.017 | [2] -0.074 | gefitinib -0.065 | [3] 0.27 | lapatinib -0.02 | pictilisib -0.106 | [4] -0.069 | crizotinib -0.024 | [5] -0.072 | [6] 0.079 | duvelisib -0.107 | gandotinib -0.1 | tozasertib -0.032 | [7] -0.117 | doramapimod -0.04 | ispinesib -0.121

TBC1D22A (UniProt Q8WUA7)
inactive: [1] -0.13 | filanesib 0 | zotarolimus 0.008 | idasanutlin -0.028 | alisertib -0.017 | [2] 0.015 | gefitinib -0.013 | [3] 0.095 | lapatinib 0.031 | pictilisib -0.029 | [4] -0.014 | crizotinib 0.057 | [5] -0.017 | [6] -0.084 | duvelisib 0.023 | gandotinib -0.022 | tozasertib -0.021 | [7] 0.013 | doramapimod 0.029 | ispinesib -0.004

THUMPD1 (UniProt Q9NXG2)
inactive: [1] 0.031 | filanesib 0.009 | zotarolimus 0.017 | idasanutlin -0.051 | alisertib -0.05 | [2] 0.014 | gefitinib 0.005 | [3] 0.016 | lapatinib -0.011 | pictilisib 0.046 | [4] -0.019 | crizotinib 0.036 | [5] 0.054 | [6] -0.051 | duvelisib 0.035 | gandotinib -0.02 | tozasertib -0.014 | [7] -0.016 | doramapimod -0.084 | ispinesib 0.077

THOC3 (UniProt Q96J01)
inactive: [1] 0.024 | filanesib -0.023 | zotarolimus 0.008 | idasanutlin 0.013 | alisertib -0.13 | [2] -0.003 | gefitinib 0.014 | [3] 0.025 | lapatinib 0.017 | pictilisib 0.048 | [4] 0.001 | crizotinib 0.026 | [5] 0.017 | [6] -0.108 | duvelisib -0.003 | gandotinib -0.036 | tozasertib 0.028 | [7] 0.019 | doramapimod -0.019 | ispinesib -0.044

TBPL1 (UniProt P62380)
inactive: [1] 0.026 | filanesib 0.009 | zotarolimus 0.043 | idasanutlin -0.1 | alisertib 0.025 | [2] 0 | gefitinib 0.058 | [3] -0.035 | lapatinib -0.008 | pictilisib 0.051 | [4] 0.037 | crizotinib -0.017 | [5] 0.185 | [6] -0.124 | duvelisib 0.043 | gandotinib -0.172 | tozasertib 0.015 | [7] 0.038 | doramapimod -0.073 | ispinesib 0.004

TIA1 (UniProt P31483)
inactive: [1] 0.083 | filanesib 0.021 | zotarolimus -0.017 | idasanutlin 0.021 | alisertib -0.003 | [2] 0.108 | gefitinib 0.02 | [3] 0.04 | lapatinib -0.005 | pictilisib -0.046 | [4] 0.005 | crizotinib -0.021 | [5] 0.124 | [6] -0.072 | duvelisib 0.024 | gandotinib 0.03 | tozasertib -0.024 | [7] 0.043 | doramapimod -0.019 | ispinesib 0.013

TIMM17B (UniProt O60830)
inactive: [1] -0.074 | filanesib -0.025 | zotarolimus -0.004 | idasanutlin 0.08 | alisertib -0.014 | [2] -0.086 | gefitinib 0 | [3] 0.072 | lapatinib 0.051 | pictilisib -0.052 | [4] 0.018 | crizotinib 0.047 | [5] -0.025 | [6] -0.025 | duvelisib 0.183 | gandotinib 0.04 | tozasertib -0.044 | [7] -0.054 | doramapimod 0.014 | ispinesib -0.045

TDRKH (UniProt Q9Y2W6)
inactive: [1] 0.021 | filanesib 0.101 | zotarolimus 0.099 | idasanutlin -0.125 | alisertib -0.119 | [2] 0.005 | gefitinib 0.003 | [3] -0.055 | lapatinib 0.008 | pictilisib -0.011 | [4] 0.029 | crizotinib -0.02 | [5] 0.018 | [6] 0.165 | duvelisib 0.103 | gandotinib 0.033 | tozasertib -0.057 | [7] 0.002 | doramapimod 0.002 | ispinesib 0.004

TBC1D22B (UniProt Q9NU19)
inactive: [1] 0.279 | filanesib -0.076 | zotarolimus 0.036 | idasanutlin -0.236 | alisertib -0.134 | [2] -0.005 | gefitinib 0.025 | [3] 0.043 | lapatinib 0.022 | pictilisib -0.006 | [4] -0.01 | crizotinib -0.147 | [5] -0.02 | [6] 0.013 | duvelisib -0.033 | gandotinib -0.087 | tozasertib 0.032 | [7] -0.011 | doramapimod 0.183 | ispinesib 0.074

THOC7 (UniProt Q6I9Y2)
inactive: [1] -0.025 | filanesib 0.119 | zotarolimus 0.049 | idasanutlin 0.06 | alisertib -0.05 | [2] 0.025 | gefitinib 0.013 | [3] -0.038 | lapatinib -0.003 | pictilisib -0.047 | [4] -0.022 | crizotinib -0.004 | [5] 0 | [6] 0.05 | duvelisib 0.014 | gandotinib 0.012 | tozasertib -0.048 | [7] 0.001 | doramapimod 0.049 | ispinesib -0.069
